In PubChem BioAssay AID587 (National Center for Advancing Translational Sciences (NCATS), 2007):
The whole screen tested about 59,000 compounds, of which about 35 (0.06%) were called active. This list was built around the results that the source calls inconclusive (neither active nor inactive); the mix of calls is not that of the screen. Rule as the data show it: active = max dye-equivalent concentration above about 10 nM; inconclusive = between about 1.1 nM and that limit; inactive = weaker than that.

Experiment: qHTS Assay for Spectroscopic Profiling in Texas Red Spectral Region
Conditions: Compound fluorescence, Texas Red channel, 547/618 nm; hits give high values
Procedure, shortened: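 qHTS profiling of intrinsic compound fluorescence; 100 mM Tris pH 8.0; 15 min RT; ex 547 / em 618 nm; response expressed as Texas Red dye-equivalent concentration from six-point plate standard.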

| Structure (SMILES) | max dye-equivalent concentration |
| --- | --- |
| CCOC(=O)C1CCN(C(c2cc3ccc(C)cc3[nH]c2=O)c2nnnn2C2CCCCC2)CC1 (configuration not stated) | inconclusive: 1.1 nM |
| CCn1c(SCc2ccc(C)cc2)nnc1-c1cnccn1 | inconclusive: 1.6 nM |
| CC(=O)N1CCN(CCN(CC2C(C)C=C(C)CC2C)C(C)=O)CC1 (configuration not stated) | inconclusive: 1.2 nM |
| Cc1ccc(NCc2nnc(SCC(=O)Nc3ccccc3)n2CC2CCCO2)c(C)c1 (configuration not stated) | inconclusive: 1.2 nM |
| COC(=O)c1c(C#N)c(N)nc2c1CCCC2 | inconclusive: 2.6 nM |
| COc1ccccc1CNC(=O)C1CCN(Cc2nc(-c3ccc(Cl)cc3)oc2C)CC1 | inconclusive: 1.3 nM |
| CN(c1ccccc1)S(=O)(=O)c1cc(C(=O)c2nccn2C)ccc1Cl | inconclusive: 1.4 nM |
| CCC(C)(C)n1nnnc1C(c1cc2cc3c(cc2[nH]c1=O)OCO3)N1CCN(C)CC1 (configuration not stated) | inconclusive: 2.4 nM |
| Cc1cccc(-c2nc(CN3CCCC(C(=O)NC4CCCC4)C3)c(C)o2)c1 (configuration not stated) | inconclusive: 1.3 nM |
| CN(c1ccccc1C(=O)N1CCc2ccccc2C1)S(C)(=O)=O | inconclusive: 1.4 nM |
| Cc1cccc(Cn2cnc3c(nnn3Cc3ccc(Cl)cc3)c2=O)c1 | inconclusive: 1.6 nM |
| Cc1ccccc1N1CCN(S(=O)(=O)C[C@@]23CC[C@H](C[C@H]2NC(=O)[C@@H](N)CCS(C)(=O)=O)C3(C)C)CC1 | inconclusive: 1.1 nM |
| O=C(CSc1n[nH]c(=O)[nH]c1=O)c1ccccc1 | inconclusive: 2.3 nM |
| CCOC(=O)C(C(=O)OCC)[C@@H]1CS(=O)(=O)C[C@H]1C(C(=O)OCC)C(=O)OCC | inconclusive: 1.3 nM |
| Cc1ccccc1-n1c(C)nnc1SCC(=O)N1CC(=O)Nc2ccccc21 | inconclusive: 1.5 nM |
| COc1cccc(-c2cc3nc4c(c(N5CCC6(CC5)OCCO6)n3n2)CCCC4)c1 | inconclusive: 2.2 nM |
| CC(=O)NC1CC2CCCC(C1)N2CC(=O)NCc1ccc(F)cc1 (configuration not stated) | inconclusive: 1.5 nM |
| CSc1nc(N)c(C#N)c(-c2ccc(Cl)cc2)c1C#N | inconclusive: 1.3 nM |
| CCCc1nc2ccccc2c(=O)n1NC(=O)c1c(O)c2ccccc2[nH]c1=O | inconclusive: 1.2 nM |
| CC[C@@]1(O)C(=O)OCc2c1cc1n(c2=O)Cc2cc3c(CN(C)C)c(O)ccc3nc2-1 | inconclusive: 1.4 nM |
| CC12CC[C@@H]3c4ccc(OP(=O)(O)O)cc4CCC3C1CCC2=O (some centres not stated) | inconclusive: 1.1 nM |

| Structure (SMILES) | max dye-equivalent concentration |
| --- | --- |
| COC(=O)c1cn[nH]c1N | inactive |
| CCOC(=O)N1CCC(O)(c2cc(C)c(C)cc2C)CC1 | inconclusive: 1.6 nM |
| Cc1noc(N)c1C(=O)Nc1ccc(F)c(Cl)c1 | inconclusive: 1.1 nM |
| O=C(NCc1ccco1)c1sc2cccc(F)c2c1Cl | inconclusive: 1.3 nM |
| Cc1cnc(CNc2cc(-c3ccccc3CN(C)C)ncn2)cn1 | inactive |
| COc1cc(NC(=O)Cn2c(-c3cncs3)nc3ccccc32)cc(OC)c1OC | inconclusive: 1.2 nM |
| CCN(CC)C(=O)CSc1nc2ccccc2c(=O)[nH]1 | inconclusive: 1.2 nM |
| O=CN(Cc1ccco1)C1(C(=O)NC2CCCCC2)CCCCC1 | inconclusive: 1.5 nM |
| CC(NS(C)(=O)=O)C(c1cccs1)N1CCN(c2ccc(F)cc2)CC1 (configuration not stated) | inconclusive: 1.2 nM |
| O=C(Cn1nnc2c(cnn2-c2ccc(F)cc2)c1=O)OC1CCCCC1 | inconclusive: 1.9 nM |
| O=c1c(CCc2ccccc2)nc2cncnc2n1Cc1ccc(F)cc1 | inconclusive: 1.2 nM |
| CC(C)(C)C(=O)OCOC(=O)[C@@H]1N2C(=O)[C@@H](N=CN3CCCCCC3)[C@H]2SC1(C)C | inconclusive: 1.6 nM |
| CC12CCCCC1(O)[N+](=O)C1=C(CCCC1)N2[O-] (configuration not stated) | inconclusive: 1.2 nM |
| COCCn1c(SCC(=O)N2CCCCC2)nc2ccccc2c1=O | inconclusive: 1.6 nM |
| CC1(C)Cc2c(C#N)c(N)sc(=S)c2CS1 | inactive |
| COc1ccc(OC)c(C(c2nnnn2Cc2ccccc2)N2CCN(C)CC2)c1 (configuration not stated) | inconclusive: 1.1 nM |
| O=C(COc1ccccc1F)Nc1ccc(S(=O)(=O)NCc2ccco2)cc1 | inconclusive: 1.9 nM |
| Cc1ccc(NC(=O)CSc2nnc(-c3cnccn3)n2Cc2ccco2)cc1C | inconclusive: 1.3 nM |
| Cc1cc(C)n2cc(CSc3ncccc3C(=O)O)nc2n1 | inconclusive: 1.4 nM |
| Cc1ccc(C(=O)Nc2c(C)n(C)n(-c3ccccc3)c2=O)cc1S(=O)(=O)N1CCOCC1 | inconclusive: 1.2 nM |
| COc1ccc(C(C(=O)NC2CCCC2)N(C(=O)c2ccco2)c2ccc3c(c2)OCO3)cc1OC (configuration not stated) | inconclusive: 1.1 nM |

Looked up above:
`CCOC(=O)C(C(=O)OCC)[C@@H]1CS(=O)(=O)C[C@H]1C(C(=O)OCC)C(=O)OCC` | max dye-equivalent concentration: inconclusive: 1.3 nM
`CCC(C)(C)n1nnnc1C(c1cc2cc3c(cc2[nH]c1=O)OCO3)N1CCN(C)CC1` (configuration not stated) | max dye-equivalent concentration: inconclusive: 2.4 nM
